The other results are listed elsewhere or left out. The main result of the screen is listed elsewhere. These columns were measured beside it and carry no call. Most of these compounds were active or inconclusive in the main read-out, so they are no random draw. Potencies come from curve fits of mixed quality, noted in brackets.
Assay: qHTS Assay for Lipid Storage Modulators in Drosophila S3 Cells;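 as to cell number change: cells counted by Cell Tracker Red CMTPX staining in the red channel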
Settings: BODIPY lipid droplet fluorescence, 18-24 h; for cell number change: measured here: cell count max response, cells fed with added oleic acid
Summary of the method: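 Drosophila S3 cells got compounds at several concentrations plus oleic acid (400 uM solution). Laser-scanning cytometry with 488 nm excitation read lipid droplets at 500-530 nm and cells at 575-640 nm. Percent activity was relative to 20 uM Triacsin C.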

[1] = measured here: lipid fluorescence (Fed channel) AC50, cells fed with added oleic acid
[2] = measured here: cell number channel AC50, cells fed with added oleic acid

Row | Structure (SMILES) | cell number change [%] | AC50 [1] | AC50 [2]
1 | O=C(O)c1cc2c(ccc3ccccc32)[nH]1 | -1.02 | 3.26 µM [falling, single point] | –
2 | Cc1ccc(CNC(=O)CCCCCNC(=O)N2CCn3c2nc2ccccc23)cc1 | -10.4 | 0.58 µM [rising, single point] | –
3 | C=C(C)C(=O)N1CC2(CC(c3cccc(NC(=O)c4ccccc4)c3)=NO2)C[C@@H]1C(N)=O (stereo partly drawn) | 182 | 23.1 µM [rising, single point] | 29.1 µM [rising, single point]
4 | C[C@H](NC(=O)[C@H]1N2C(=O)c3ccccc3C2SC1(C)C)C(=O)N1CCCCC1 (stereo partly drawn) | – | 4.11 µM [falling, partial curve] | –
5 | Cc1ccc2[nH]c3nc(NN)nnc3c2c1 | -14 | 23.1 µM [falling, single point] | –
6 | COc1cc([N+](=O)[O-])ccc1N/C=C/C(=O)c1cccs1 | – | 29.1 µM [falling, single point] | –
7 | Nc1ccc(C(=O)NCC(=O)O)cc1 | 13.5 | 0.411 µM [rising, full curve, poor fit] | –
8 | O=C(NNc1ccc([N+](=O)[O-])cc1)C1CC1c1ccccc1 (stereo not drawn) | -4.33 | 20.6 µM [rising, single point] | –
9 | COc1ccc(NS(=O)(=O)c2ccc(N)cc2)nn1 | -23.1 | 0.731 µM [falling, full curve, poor fit] | –
10 | Cc1ccsc1C(=O)N(C)CC(=O)N(CC(C)C)c1c(N)n(CC(C)C)c(=O)[nH]c1=O | 6.02 | – | –
11 | Cc1[nH]nc2c1C(c1ccc(N(C)C)cc1)C1=C(CC(C)(C)CC1=O)N2 (stereo not drawn) | -5.87 | 31.6 µM [rising, single point] | –
12 | COc1ccc(/C=N/NC(=O)c2ccoc2C)cc1COc1c(C)cccc1C | -22.5 | 2.59 µM [rising, full curve, poor fit] | –
13 | O=C1CSC(c2ccc(Cl)cc2)N1C1CCCCC1 (stereo not drawn) | 19.7 | – | 0.00517 µM [rising, full curve, poor fit]
14 | O=C(NCCc1ccc(Cl)cc1)c1cc(-c2ccccn2)nc2ccccc12 | -5.44 | 2.91 µM [rising, single point] | –
15 | Cc1nc(NCC2CCCO2)nc2c1C(=O)CC(C)C2 (stereo not drawn) | 6.15 | 6.51 µM [falling, single point] | –
16 | COc1c(C)cccc1C(=O)Nc1ccc(OCC(=O)N2CCOCC2)cc1C | 24.9 | – | –
17 | COc1ccc(Cc2nnc(SCC(=O)N(C)CC(=O)Nc3ccc(C)cc3)o2)cc1 | 54.8 | 20.6 µM [rising, partial curve] | 13 µM [rising, partial curve]
18 | O=c1c2cn[nH]c2[nH]c(=S)n1-c1ccccc1Cl | -37.9 | – | 32.6 µM [falling, single point]
19 | CC1CCCCN1C(=O)C(=O)c1cn(CC(=O)N2CCCC2)c2ccccc12 (stereo not drawn) | -24 | 6.51 µM [falling, single point] | –
20 | CC(NC(=O)CN1C(=O)NC2(CCCCC2C)C1=O)c1ccccc1 (stereo not drawn) | 11 | 3.66 µM [rising, partial curve, poor fit] | –

Copied from the list.
Value of `CC(NC(=O)CN1C(=O)NC2(CCCCC2C)C1=O)c1ccccc1` (stereo not drawn) under cell number change [%]: 11
Value of `O=C(O)c1cc2c(ccc3ccccc32)[nH]1` under cell number change [%]: -1.02
Value of `CC1CCCCN1C(=O)C(=O)c1cn(CC(=O)N2CCCC2)c2ccccc12` (stereo not drawn) under AC50 [1]: 6.51 µM [falling, single point]
Value of `O=C(NCCc1ccc(Cl)cc1)c1cc(-c2ccccn2)nc2ccccc12` under AC50 [1]: 2.91 µM [rising, single point]

Later entries.

Row | Structure (SMILES) | cell number change [%] | AC50 [1] | AC50 [2]
21 | CCOC(=O)N1CCC(NC(=O)C2CCN(S(=O)(=O)c3cnc[nH]3)CC2)CC1 | -9.6 | 25.9 µM [falling, partial curve, poor fit] | –
22 | O=C(COC(=O)c1cccnc1Cl)Nc1cc(S(=O)(=O)N2CCOCC2)ccc1Cl | 0.137 | 6.51 µM [falling, single point] | –
23 | CCOC(=O)COc1ccc2cc(C(=O)OCC)c(=O)oc2c1 | -12.9 | 0.0651 µM [falling, full curve, poor fit] | –
24 | C/C(=N\NC(=O)CNc1cccc(C(F)(F)F)c1)c1cccc(Br)c1 | -65.8 | 11.6 µM [falling, partial curve] | 11.6 µM [falling, partial curve]
25 | Cc1ccc(NC(=O)N2CCc3ccccc3C2)cc1C | 13.9 | – | 6.51 µM [rising, single point]
26 | Cc1cc(Cl)ccc1OCC(=O)Nc1ccc(CN2CCOCC2)cc1 | -25.7 | – | –
27 | CCOC(=O)c1sc(NC(=O)CN2CCCC2)c(C(=O)OCC)c1C | 0.139 | 29.1 µM [falling, single point] | 0.366 µM [falling, single point]
28 | CCCN1CCC(=O)N([C@H](CSc2ccc(C)cc2)c2ccccc2)CC1 | 22.4 | 16.4 µM [rising, partial curve] | –
29 | Cc1ccc(C)n1-c1ccc(C(=O)NN)s1 | 3.3 | 1.03 µM [rising, full curve] | 0.103 µM [rising, partial curve, poor fit]
30 | O=C(Nc1cccc(Br)c1)c1cccc(OC(=S)N2CCOCC2)c1 | -18.8 | – | –
31 | Brc1cccc(CNc2nc3ccccc3n2CCN2CCOCC2)c1 | -2.23 | 0.58 µM [rising, single point] | –
32 | COc1ccc(N2CCN(c3ccc(S(=O)(=O)N(C(C)C)C(C)C)cn3)CC2)cc1 | -9.21 | – | –
33 | CCC(C)(C)NC(=O)Cc1ccc(OC)c(OC)c1 | 10.9 | – | 0.731 µM [falling, full curve, poor fit]
34 | CNc1nc(Nc2ccc(C)c(Cl)c2)c2cnn(C)c2n1 | -23.4 | 11.6 µM [falling, partial curve] | –
35 | O=C(N1CCCC1)C(F)(F)Oc1ccc(F)cc1 | -22.2 | 29.1 µM [falling, single point] | 3.66 µM [falling, single point]
36 | C=CC(=O)N=c1sc2ccccc2n1-c1ccccc1 | -70.3 | – | 18.4 µM [falling, single point]
37 | O=C(CNS(=O)(=O)c1ccc(Br)s1)NCc1ccc2c(c1)OCO2 | 23.2 | 4.11 µM [rising, partial curve] | –
38 | CC(=O)Nc1ccc(S(=O)(=O)Nc2ccc(S(=O)(=O)N3CCCCCC3)cc2)cc1 | -6.22 | – | –
39 | CCC(C)(C)NC(=O)C(c1ccc(OC)cc1)N(C(=O)CCC(=O)Nc1cc(C)on1)c1ccc2c(c1)OCO2 (stereo not drawn) | 20 | 1.16 µM [rising, single point] | –
40 | COc1ccccc1N1C(=O)c2cccc3c(C(=O)O)ccc(c23)C1=O | -5.48 | 0.517 µM [rising, full curve, poor fit] | –

Row | Structure (SMILES) | cell number change [%] | AC50 [1] | AC50 [2]
41 | CS(=O)(=O)N(CC(=O)N1CCOCC1)c1cc(C(F)(F)F)ccc1Cl | 0.265 | 16.4 µM [rising, partial curve] | –
42 | O=C(O)c1ccccc1C(=O)OCCCCOC(=O)c1ccccc1C(=O)O | 3.75 | 0.00461 µM [falling, full curve] | 6.51 µM [rising, single point]
43 | CCOc1ccc2oc(C(=O)N(CCOC)c3c(N)n(CC(C)C)c(=O)[nH]c3=O)c(C)c2c1 | 2.27 | 0.731 µM [rising, single point] | 1.16 µM [rising, full curve, poor fit]
44 | CN(C)S(=O)(=O)N1C(=O)c2ccccc2C1=O | -50.4 | 0.092 µM [rising, full curve, poor fit] | 25.9 µM [falling, partial curve]
45 | COc1cc(/C=C/c2nc3ccccc3c(=O)[nH]2)cc(Br)c1O | 8.47 | 29.1 µM [rising, single point] | –
46 | CC(C)(C)n1nc2c(c1NC(=O)Cc1cccs1)CSC2 | 28 | 6.51 µM [rising, full curve, poor fit] | –
47 | CCc1cccc(N(C(=O)c2csnn2)C(C(=O)NC2CCCCC2)c2ccncc2)c1 (stereo not drawn) | -13.3 | – | –
48 | Cn1c(SCC(=O)Nc2ccccc2-c2ccccc2)nnc1-c1ccco1 | – | 0.731 µM [rising, full curve] | 0.731 µM [rising, full curve]
49 | CC(OC(=O)Cc1cccc(C(F)(F)F)c1)C(=O)Nc1ccc(Cl)cn1 (stereo not drawn) | – | 0.00411 µM [rising, full curve, poor fit] | –
50 | CCOc1ccc(-n2c(SCC(=O)Nc3nccs3)nnc2-c2ccoc2C)cc1 | 1.17 | 9.2 µM [rising, partial curve, poor fit] | –
51 | CCc1ccc(N2CCN(C(=O)c3ccc(OC)c(OC)c3)CC2)cc1 | 4.08 | – | –
52 | O=C1c2ccccc2C(=O)N1c1ncn[nH]1 | 19.8 | 25.9 µM [rising, partial curve, poor fit] | –
53 | O=C(Nc1nnc(SCc2ccc(F)cc2)s1)C1CC(=O)N(Cc2ccccc2)C1 (stereo not drawn) | 32.1 | – | 18.4 µM [rising, single point]
54 | CCc1nccn1CCC(=O)N1CCCC(N2CCN(c3ccccc3C)CC2)C1 (stereo not drawn) | 33 | – | –
55 | CC(=O)Nc1ccc(-c2ccc(NC(C)=O)cc2)cc1 | 47.4 | 0.116 µM [rising, full curve, poor fit] | 4.61 µM [rising, full curve]
56 | COCCNc1nc(NCc2ccccc2)c2cnn(C)c2n1 | 20.2 | 0.00411 µM [rising, full curve, poor fit] | –
57 | CC(=O)c1c(C)[nH]c(C(=O)CN2C(=O)NC(C)(c3ccc4c(c3)OCO4)C2=O)c1C (stereo not drawn) | -39.1 | – | 20.6 µM [falling, single point]
58 | Cc1ccc(-c2csc(N3CCN(c4cc5c(cc4Cl)nc(-c4ccncc4)n5CCOCCO)CC3)n2)cc1 | -12.3 | – | –
59 | Cc1ccc(C(=O)NC2CC(C)(C)NC(C)(C)C2)cc1Cl | -9.07 | 29.1 µM [rising, single point] | –
60 | O=C(NCCCN1CCOCC1)/C(=C/c1ccco1)NC(=O)c1ccccc1 | 38.2 | 0.501 µM [falling, full curve, poor fit] | 23.1 µM [rising, single point]

Source: PubChem BioAssay AID2685 (National Center for Advancing Translational Sciences (NCATS), 2010)
